Some results were stated once for a whole list of compounds, not compound by compound.
Tested on: E. coli DC0
Assay: MIC against other Gram-negative bacteria
Conditions: vs E. coli DC0, as printed in text

CC(=O)NC[C@H]1CN(c2ccc(N3CCN(C(=O)CNC(=O)OCC4=C(C(=O)O)N5C(=O)[C@@H](NC(=O)C(NC(=O)CN(CCCCNC(=O)c6cccc(O)c6O)C(=O)c6cccc(O)c6O)c6ccccc6)[C@H]5SC4)CC3)c(F)c2)C(=O)O1 (stereo partly drawn) [Compound 1, (6R,7R)-3-((((2-(4-(4-((S)-5-(Acetamidomethyl)-2-oxooxazolidin-3-yl)-2-fluorophenyl)piperazin-1-yl)-2-oxoethyl)carbamoyl)oxy)methyl)-7-(2-(2-(N-(4-(2,3-dihydroxybenzamido)butyl)-2,3-dihydroxybenzamido)acetamido)-2-phenylacetamido)-8-oxo-5-thia-1-azabicyclo[4.2.0]oct-2-ene-2-carboxylic acid]
MIC: < 0.025 M

CC(=O)OCC1=C(C(=O)O)N2C(=O)[C@@H](NC(=O)C(NC(=O)CN(CCCCNC(=O)c3cccc(O)c3O)C(=O)c3cccc(O)c3O)c3ccccc3)[C@H]2SC1 (stereo partly drawn) [Compound 26, (6R,7R)-3-(Acetoxymethyl)-7-(2-(2-(N-(4-(2,3-dihydroxybenzamido)butyl)-2,3-dihydroxybenzamido)acetamido)-2-phenylacetamido)-8-oxo-5-thia-1-azabicyclo[4.2.0]oct-2-ene-2-carboxylic acid]
MIC: < 0.025 M
